The experiment deals with T1, bS6m (mitoribosomal small subunit protein) (mouse (endogenous in NS0)) (UniProt P58064).
T1 sequence: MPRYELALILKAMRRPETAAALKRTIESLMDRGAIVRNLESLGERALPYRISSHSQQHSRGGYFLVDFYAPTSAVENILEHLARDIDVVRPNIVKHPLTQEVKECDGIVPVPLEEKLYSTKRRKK
The experiment is described as follows: cryo-EM structure; pre-SSU-1 (3.2 Å), native SSU assembly intermediate from mitochondria of Trmt2b-knockout NS0 mouse cells, sucrose gradient fractions.

One molecule from article PMC9200640 can be followed below.

Results are given in words; binding and its absence hold for the method and conditions named. Some results given as binding are weak or reduced against the parent protein; the word gives no strength.

B1: RBFA (mouse mitochondrial ribosome-binding factor A) (protein, UniProt Q6P3B9 42-350)
chain: GSKNLLKKFASKTRKKFWYEGPSLGSHLTPRPSKHEFLTKTTSKKTRKEDSIRLRVLNGLLYKSLTELLCTPQVSQEVYDLNVELSKVSVTSDFSACRVYWKTGVSAEQNKHTESVLQRSAAYMRHLLISQQTLRNVPPIVFVQDKRDLVLAEVDRLLAEADFGPPDERDDLDGLRNADAQVPHDSPEPAAHPNLCGIDHEALNKQIMEYKRKKERGLQCQSLAPPSGREQAPEPTRLLRKREKVRSRWQHRDASPRSFLLGEEDEDEDSSTEWECHAHEAEDDDDHQEEELGADRGAQRGLCGKREQG
As to B1, the binding entry is recorded as “binds”.
